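Uptake of anthrax lethal toxin into cultured cells, read by FRET (460/530 nm ratio) and reported from the 460 nm channel; the cell line is not named here. Each compound was tested as a concentration series from about 0.0005 to 40 µM. The number is the fitted AC50 of the 460 nm signal alone; lower values mean a more potent effect. A falling signal goes with compounds filed as inhibitors or cytotoxic, a rising one with activators or fluorescent compounds (inferred from the filed classes).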

Values are in µM. Common to all entries: measured here: 460 nm channel. Part of the compounds only, not a random draw; the main read-out is not listed here. A potency from a partial, single-point or poor curve is only a rough figure. The first word of each remark tells which way the curve ran; it can be opposite to the aim of the assay.

* COC(=O)C1=CN(CC2CCCO2)C=C(C(=O)OC)C1c1ccsc1 (stereo not drawn) : AC50 10 µM (rising, partial curve)
* COc1cccc(-c2oc3ccccc3c(=O)c2O)c1 : AC50 31.62 µM (falling, single point)
* Cn1c(C(C#N)C(=O)c2sc3ccccc3c2Cl)nc2ccccc21 (stereo not drawn) : AC50 2.512 µM (falling, full curve, poor fit)
* COc1cccc(-c2cncnc2N(C)Cc2ccco2)c1 : AC50 15.85 µM (rising, single point)
* CCOC(=O)c1c(C(C)(C)C)oc2ccc(OCC#N)cc12 : AC50 7.943 µM (falling, partial curve)
* COc1ccccc1-c1nccc(NCc2cnc(C)cn2)n1 : AC50 5.012 µM (falling, single point)
* OC[C@H]1NC[C@@H](O)[C@@H](O)[C@H]1O : AC50 12.59 µM (falling, single point)
* O=C(CCSc1nc(-c2ccco2)cc(C(F)(F)F)n1)NCC1CCCO1 (stereo not drawn) : AC50 5.012 µM (rising, single point)
* COc1ccccc1-c1oc2ccccc2c(=O)c1OC : AC50 12.59 µM (falling, single point)
* COCn1c2ccccc2c2nnc(C(C)=O)nc21 : AC50 5.012 µM (rising, single point)
* O=S(=O)(c1ccc2c(c1)OCCO2)N1CCC(c2nc3ccc(Cl)cc3[nH]2)CC1 : AC50 10 µM (falling, partial curve)
* CC(=O)Nc1ccc(S(=O)(=O)N2CCCCC2c2cccnc2)cc1 (stereo not drawn) : AC50 12.59 µM (rising, single point)
* CC(C)N(C(=O)COC(=O)c1ccc(O)cc1)C(C)C : AC50 5.012 µM (rising, single point)
* COC(=O)[C@@]1(Cc2ccc(F)cc2)[C@H]2c3cc(C(=O)N(C)C)n(Cc4ccc(C(F)(F)F)nc4)c3C[C@H]2CN1C(=O)c1ccccc1 : AC50 10 µM (rising, partial curve)
* O=C1C2(Cl)C3(Cl)C4(Cl)C(Cl)(Cl)C5(Cl)C3(Cl)C1(Cl)C5(Cl)C24Cl (stereo not drawn) : AC50 25.12 µM (falling, partial curve)
* CC(=O)Nc1ccc2c(c1)/C(=C/c1ccc([N+](C)(C)C)cc1)c1ccccc1-2 : AC50 5.012 µM (rising, single point)
* CNS(=O)(=O)c1cccc(C(=O)OCC(=O)c2cc(C)n(-c3ccc4c(c3)OCO4)c2C)c1 : AC50 0.07943 µM (rising, full curve, poor fit)
* Cc1cc2c(c(=O)n1C)C(Cc1ccccc1)C(C#N)=C(N)O2 (stereo not drawn) : AC50 3.981 µM (rising, single point)
* COC(=O)CN(c1ccc2c(c1)OCO2)S(C)(=O)=O : AC50 0.3981 µM (falling, partial curve)
* c1ccc(-c2nc(N3CCCCCC3)c3ccccc3n2)nc1 : AC50 19.95 µM (falling, single point)
* c1cn(-c2ccnc(-c3ccc4c(c3)OCO4)n2)cn1 : AC50 3.162 µM (falling, single point)
* CCOc1ccccc1Cn1c(=O)oc2ccc(C)cc21 : AC50 3.981 µM (falling, partial curve)
* O=C(c1ccccc1)c1cccn1CC(=O)N1CCN(c2ccc(F)cc2)CC1 : AC50 31.62 µM (falling, single point)
* O=C(Cn1cc(C(=O)c2cccs2)c2ccccc21)NCc1ccc2c(c1)OCO2 : AC50 12.59 µM (falling, partial curve)
* COc1cc(NS(=O)(=O)c2ccc3c(c2)oc(=O)n3C)cc(OC)c1OC : AC50 31.62 µM (falling, single point)
* CC(C)C(NS(=O)(=O)c1ccc2c(c1)oc(=O)n2C)C(=O)N1CCN(c2ccccc2F)CC1 (stereo not drawn) : AC50 15.85 µM (falling, partial curve)
* N#Cc1ccc(NC(=O)N2CCC(c3nc4c(nnn4Cc4cccc(Cl)c4)c(=O)[nH]3)CC2)cc1 : AC50 10 µM (rising, partial curve)
* O=S(=O)(NCC1CCCO1)c1ccc2c(c1)OCCO2 (stereo not drawn) : AC50 0.631 µM (falling, full curve, poor fit)

From PubChem BioAssay record AID912 (NCATS, 2007).